Binding data for nine molecules are collected here from patent US20170022287A1.

Chains of the proteins cited; added tags and fusions are not shown. Residues count along the entry.
UniProt Q07011, residues 24-186: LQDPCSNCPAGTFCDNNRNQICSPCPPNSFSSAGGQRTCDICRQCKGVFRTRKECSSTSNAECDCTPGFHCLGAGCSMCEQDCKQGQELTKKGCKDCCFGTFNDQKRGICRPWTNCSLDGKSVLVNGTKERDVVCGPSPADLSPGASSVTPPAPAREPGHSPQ

Positions count from the first letter of the chain named. These are yes or no findings as the source states them, for the method shown. Some binding calls cover weakened binding; strength is not graded here.

The chains are these.
B1: R1 (antibody, V domains shown)
VH: EVQLVQSGAEVKKPGASVKVSCKASGYTFTSYYTHWVRQAPGQGLEWMGIINPSGGSTSYAQKFQGRVTMTRDTSTSTVYMELSSLRSEDTAVYYCARGAPEYSSSSDYWGQGTMVTVSS
VL: QSALTQPASVSGSPGQSITISCTGTSSDVGGYNYVSWYQQHPGKAPKLMIYDVSNRPSGVSNRFSGSKSGNTASLTISGLQAEDEADYYCSSYTSSSTRWVFGGGTKLTVL
B2: R4 (antibody, V domains shown)
VH: EVQLVQSGAEVKKPGASVKVSCKASGYTFSGYYMHWVRQAPGQGLEWMGWINPNSGDTNYAQNFQGRVTMTRDTSISTAYMELSRLRSDDTAVYYCARDGTGYSSSPDYWGQGTPVTVSS
VL: B1 VL
B3: R3 (antibody, V domains shown)
VH: B1 VH
VL: B1 VL with Y34F, N55K, N62T, S91N, S95T, V101M, L108V
B4: R7 (antibody, V domains shown)
VH: QVQLLESGGGLVQPGGSLRLSCAASGFTFSSYAMSWVRQAPGKGLEWVSAISGSGGSTYYADSVKGRFTISRDNSKNTLYLQMNSLRAEDTAVYYCARDRAMYHPSFNYWGQGTLVTVSS
VL: DIQMTQSPSSLSASVGDRVTITCRASQSISSYLNWYQQKPGKAPKLLIYAASSLQSGVPSRFSGSGSGTDFTLTISSLQPEDFATYYCQQFNSYPLTFGGGTKVEIK
B5: R8 (antibody, V domains shown)
VH: QVQLQESGPGLVKPSETLSLTCAVSGYSISSGYYWGWIRQPPGKGLEWIGSIYHSGSTYYNPSLKSRVTISVDTSKNQFSLKLSSVTAADTAVYYCARQHSFTRYYGYYYFDYWGQGTTVTVSS
VL: B4 VL with Q89L, F91S, N92D, Y94I
B6: R14 (antibody, V domains shown)
VH: B4 VH with R100K, A101W, M102Y, H104Y, S106A, F107L, N108D
VL: B4 VL with Q89L, F91V, N92Y, S93R, Y94S
B7: R13 (antibody, V domains shown)
VH: QVQLVESGGGLVQPGGSLRLSCAASGFTFSYYDIQWVRQAPGKGLEWVSSISPSGQSTYYRREVKGRFTISRDNSKNTLYLQMNSLRAEDTAVYYCARRTGREYGGGWYFDYWGQGTLVTVSS
VL: B4 VL with N92S, S93R, Y94F
B8: R11 (antibody, V domains shown)
VH: B4 VH with R100K, A101W, M102Y, H104Y, S106A, F107L, N108D
VL: B4 VL with N92S, S93R, Y94F
B9: R2 (antibody, V domains shown)
VH: EVQLQESGPGLVKPSETLSLTCTVSGGSISSSSYYWGWIRQPPGKGLEWIGSIHYTGSTYYNPSLKSRVTISVDTSKNQFSLKLSSVTAADTAVYYCARLNPSIAARPGAFDIWGQGTMVTVSS
VL: QSVLTQPPSVSAAPGQKVTISCSGSSSNIANNFVSWFQQLPGTAPKLLIYDNNKRPSGIPDRFSGSKSGTSATLGITGLQTGDEADYYCGTWDRSLSAGVFGGGTKVTVL

This assay has as its target biotinylated human CD137 (human) (UniProt Q07011). The assay can be described thus: phage ELISA, biotinylated human CD137 on StreptaWell plates. In general terms: In an ELISA, binding on a coated surface is turned into a signal by an enzyme label.
As to B1, the binding entry is on record as “binds”.
For the molecule B2, the binding entry is “binds”.
Consider B3, for which the binding result is on record as “binds”.
In the case of B4, the binding result was “binds”.
Next, B5: “binds”; B6: “binds”.
Next, B7: “binds”.
The entry for B8 is “binds”; for B9 it is “binds”.
